The source of these data is the supplement of paper PMC6411743.

Molecules are shown by their SMILES. ± gives the standard deviation of the averaged measurements. The list shows a part of the results.

The target in the experiment is T1, UniProt Q9UPU7 and related entries.
T1 sequence (whole entry): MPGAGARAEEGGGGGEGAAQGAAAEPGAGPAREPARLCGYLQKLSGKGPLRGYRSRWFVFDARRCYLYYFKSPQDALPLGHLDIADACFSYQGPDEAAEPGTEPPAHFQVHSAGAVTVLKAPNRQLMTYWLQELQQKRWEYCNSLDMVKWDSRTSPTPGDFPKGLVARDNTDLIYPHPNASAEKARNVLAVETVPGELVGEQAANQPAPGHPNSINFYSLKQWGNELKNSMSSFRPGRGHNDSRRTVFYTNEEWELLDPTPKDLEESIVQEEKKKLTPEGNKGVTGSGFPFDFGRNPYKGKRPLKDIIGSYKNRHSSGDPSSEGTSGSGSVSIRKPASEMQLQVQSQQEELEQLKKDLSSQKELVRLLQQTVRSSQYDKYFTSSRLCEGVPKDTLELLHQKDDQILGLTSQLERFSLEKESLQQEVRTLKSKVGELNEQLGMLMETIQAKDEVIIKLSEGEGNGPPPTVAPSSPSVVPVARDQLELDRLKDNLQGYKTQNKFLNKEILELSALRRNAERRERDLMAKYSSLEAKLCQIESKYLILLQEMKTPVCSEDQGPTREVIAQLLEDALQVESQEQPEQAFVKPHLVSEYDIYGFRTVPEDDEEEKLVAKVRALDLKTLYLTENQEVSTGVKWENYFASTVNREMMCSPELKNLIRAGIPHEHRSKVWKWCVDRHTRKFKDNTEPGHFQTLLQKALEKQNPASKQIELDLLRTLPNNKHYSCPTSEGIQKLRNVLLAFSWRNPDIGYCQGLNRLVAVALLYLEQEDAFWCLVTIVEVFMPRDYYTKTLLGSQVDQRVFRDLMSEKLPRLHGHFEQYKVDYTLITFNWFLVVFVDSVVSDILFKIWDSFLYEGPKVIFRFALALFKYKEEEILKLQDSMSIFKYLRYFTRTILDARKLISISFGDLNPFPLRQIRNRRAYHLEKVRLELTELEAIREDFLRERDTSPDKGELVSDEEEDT
The experiment is described as follows: NP40-soluble protein abundance relative to vehicle (solubility fold change) (ratio); higher = more soluble protein in presence of GTP. On the procedure:
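Solubility proteome profiling in Jurkat crude lysate. Lysate was treated with Mg-GTP (0.1-10 mM) for 10 min at room temperature and 3 min at 37 °C, then solubilised with 0.8% NP40 and benzonase, followed by ultracentrifugation. Proteins were quantified by TMT10 LC-MS/MS; the value is the NP40-soluble abundance relative to the NP40-processed vehicle, from 3 independent experiments.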

As for `Nc1nc2c(ncn2[C@@H]2O[C@H](COP(=O)(O)OP(=O)(O)OP(=O)(O)O)[C@@H](O)[C@H]2O)c(=O)[nH]1` [guanosine triphosphate], the NP40-soluble protein abundance was found to be 1.02 ± 0.025 (concentration: 0.1mM); 1.03 ± 0.045 (concentration: 0.5mM); 1.03 ± 0.013 (concentration: 1mM); 1.02 ± 0.043 (concentration: 2mM); 0.991 ± 0.03 (concentration: 4mM); 1.01 ± 0.043 (concentration: 6mM). Besides, the NP40-soluble protein abundance by setting is: (concentration: 8mM) 1.02 ± 0.018; (concentration: 10mM) 0.952 ± 0.042.
